This is an account of results in the supplement of paper PMC6411743.

Sequences of proteins named here, by UniProt entry; tags and fusion partners are left off. A change or cut given only in a name is not applied to a line headed by its entry.
UniProt Q9UKA4: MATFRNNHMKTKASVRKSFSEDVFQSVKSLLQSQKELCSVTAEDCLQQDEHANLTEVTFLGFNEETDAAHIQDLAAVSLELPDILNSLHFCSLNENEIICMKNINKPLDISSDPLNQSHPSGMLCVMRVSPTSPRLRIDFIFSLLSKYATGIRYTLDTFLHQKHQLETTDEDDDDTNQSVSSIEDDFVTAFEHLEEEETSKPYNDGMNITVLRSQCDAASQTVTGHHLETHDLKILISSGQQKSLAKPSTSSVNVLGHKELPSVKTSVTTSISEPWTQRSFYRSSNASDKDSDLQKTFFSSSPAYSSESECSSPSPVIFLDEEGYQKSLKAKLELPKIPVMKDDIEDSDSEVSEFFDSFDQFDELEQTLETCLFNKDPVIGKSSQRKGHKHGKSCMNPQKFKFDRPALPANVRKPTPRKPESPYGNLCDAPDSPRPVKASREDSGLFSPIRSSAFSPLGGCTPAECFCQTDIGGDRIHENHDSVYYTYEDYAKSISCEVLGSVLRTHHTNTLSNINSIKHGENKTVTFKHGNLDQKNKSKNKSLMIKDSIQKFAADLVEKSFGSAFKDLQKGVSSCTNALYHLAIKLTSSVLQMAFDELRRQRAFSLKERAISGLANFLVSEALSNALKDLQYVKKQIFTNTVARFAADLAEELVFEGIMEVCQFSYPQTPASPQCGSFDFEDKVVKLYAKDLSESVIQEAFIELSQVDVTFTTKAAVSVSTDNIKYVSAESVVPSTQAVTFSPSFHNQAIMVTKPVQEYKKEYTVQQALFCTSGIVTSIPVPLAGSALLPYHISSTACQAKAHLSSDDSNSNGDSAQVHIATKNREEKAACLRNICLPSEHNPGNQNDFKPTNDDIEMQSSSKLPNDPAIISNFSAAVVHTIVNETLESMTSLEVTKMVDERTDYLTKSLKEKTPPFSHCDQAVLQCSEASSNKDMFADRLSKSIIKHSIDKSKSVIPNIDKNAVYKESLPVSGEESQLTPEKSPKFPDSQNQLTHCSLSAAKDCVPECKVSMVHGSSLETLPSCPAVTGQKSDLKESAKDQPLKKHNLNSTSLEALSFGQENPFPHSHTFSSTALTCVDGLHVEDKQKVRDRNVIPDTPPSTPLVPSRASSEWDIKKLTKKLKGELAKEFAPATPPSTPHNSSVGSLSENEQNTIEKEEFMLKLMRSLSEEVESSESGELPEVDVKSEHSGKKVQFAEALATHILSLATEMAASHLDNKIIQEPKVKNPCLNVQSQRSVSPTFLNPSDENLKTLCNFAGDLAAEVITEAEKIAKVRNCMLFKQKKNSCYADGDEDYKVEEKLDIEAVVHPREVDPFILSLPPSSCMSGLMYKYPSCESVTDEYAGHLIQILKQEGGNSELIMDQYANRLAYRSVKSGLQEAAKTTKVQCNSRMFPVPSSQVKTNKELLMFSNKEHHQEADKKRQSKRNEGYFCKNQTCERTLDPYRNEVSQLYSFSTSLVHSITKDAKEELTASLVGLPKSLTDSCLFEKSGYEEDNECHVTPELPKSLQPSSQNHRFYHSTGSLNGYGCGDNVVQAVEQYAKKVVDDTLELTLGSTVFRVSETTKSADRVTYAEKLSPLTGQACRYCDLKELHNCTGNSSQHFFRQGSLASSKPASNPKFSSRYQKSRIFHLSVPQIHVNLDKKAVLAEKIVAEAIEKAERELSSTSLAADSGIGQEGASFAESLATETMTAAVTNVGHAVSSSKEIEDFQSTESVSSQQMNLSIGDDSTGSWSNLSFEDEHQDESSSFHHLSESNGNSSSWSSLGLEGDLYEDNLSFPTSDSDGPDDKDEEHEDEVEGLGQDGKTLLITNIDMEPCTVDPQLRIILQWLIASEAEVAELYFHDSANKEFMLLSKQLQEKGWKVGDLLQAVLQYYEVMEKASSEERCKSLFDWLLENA
UniProt Q9UIJ7: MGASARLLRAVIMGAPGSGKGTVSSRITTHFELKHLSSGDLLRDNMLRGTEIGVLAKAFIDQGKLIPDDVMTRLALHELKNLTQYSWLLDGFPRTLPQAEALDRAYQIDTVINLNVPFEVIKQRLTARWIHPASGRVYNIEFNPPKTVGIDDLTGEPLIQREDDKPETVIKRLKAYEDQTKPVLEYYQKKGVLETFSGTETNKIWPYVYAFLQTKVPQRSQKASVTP
UniProt Q9P2W1: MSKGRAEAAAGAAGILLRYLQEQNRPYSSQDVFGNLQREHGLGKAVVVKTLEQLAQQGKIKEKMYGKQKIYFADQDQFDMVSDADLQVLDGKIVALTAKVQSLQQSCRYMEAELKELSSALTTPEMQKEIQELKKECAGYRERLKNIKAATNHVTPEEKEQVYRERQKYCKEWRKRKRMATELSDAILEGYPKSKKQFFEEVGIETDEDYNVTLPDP
UniProt Q9ULJ6: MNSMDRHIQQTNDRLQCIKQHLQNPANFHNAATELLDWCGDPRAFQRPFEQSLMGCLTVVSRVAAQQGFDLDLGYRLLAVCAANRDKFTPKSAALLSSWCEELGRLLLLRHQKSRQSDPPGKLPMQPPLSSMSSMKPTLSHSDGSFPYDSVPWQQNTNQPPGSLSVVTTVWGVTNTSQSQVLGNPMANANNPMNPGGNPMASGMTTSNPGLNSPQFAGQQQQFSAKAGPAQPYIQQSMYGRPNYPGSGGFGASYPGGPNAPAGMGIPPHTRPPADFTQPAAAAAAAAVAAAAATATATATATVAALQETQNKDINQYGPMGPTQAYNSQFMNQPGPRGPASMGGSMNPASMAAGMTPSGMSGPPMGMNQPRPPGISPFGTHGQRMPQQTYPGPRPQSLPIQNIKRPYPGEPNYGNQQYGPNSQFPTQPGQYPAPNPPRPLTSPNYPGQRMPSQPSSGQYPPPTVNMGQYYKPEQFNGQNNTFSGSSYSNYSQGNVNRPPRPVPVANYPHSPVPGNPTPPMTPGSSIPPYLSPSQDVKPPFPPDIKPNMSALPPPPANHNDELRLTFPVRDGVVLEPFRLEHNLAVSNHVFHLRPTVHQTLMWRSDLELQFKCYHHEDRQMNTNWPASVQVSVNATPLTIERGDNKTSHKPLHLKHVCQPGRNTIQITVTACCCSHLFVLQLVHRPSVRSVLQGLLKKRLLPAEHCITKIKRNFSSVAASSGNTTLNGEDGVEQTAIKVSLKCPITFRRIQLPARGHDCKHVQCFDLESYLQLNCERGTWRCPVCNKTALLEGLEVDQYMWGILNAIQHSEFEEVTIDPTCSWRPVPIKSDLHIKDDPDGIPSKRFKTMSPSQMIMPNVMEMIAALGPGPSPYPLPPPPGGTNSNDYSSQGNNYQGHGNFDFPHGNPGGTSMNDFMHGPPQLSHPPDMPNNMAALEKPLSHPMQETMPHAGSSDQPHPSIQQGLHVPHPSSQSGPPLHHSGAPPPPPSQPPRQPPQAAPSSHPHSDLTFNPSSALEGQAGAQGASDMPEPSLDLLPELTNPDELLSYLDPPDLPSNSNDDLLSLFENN
UniProt Q9Y217: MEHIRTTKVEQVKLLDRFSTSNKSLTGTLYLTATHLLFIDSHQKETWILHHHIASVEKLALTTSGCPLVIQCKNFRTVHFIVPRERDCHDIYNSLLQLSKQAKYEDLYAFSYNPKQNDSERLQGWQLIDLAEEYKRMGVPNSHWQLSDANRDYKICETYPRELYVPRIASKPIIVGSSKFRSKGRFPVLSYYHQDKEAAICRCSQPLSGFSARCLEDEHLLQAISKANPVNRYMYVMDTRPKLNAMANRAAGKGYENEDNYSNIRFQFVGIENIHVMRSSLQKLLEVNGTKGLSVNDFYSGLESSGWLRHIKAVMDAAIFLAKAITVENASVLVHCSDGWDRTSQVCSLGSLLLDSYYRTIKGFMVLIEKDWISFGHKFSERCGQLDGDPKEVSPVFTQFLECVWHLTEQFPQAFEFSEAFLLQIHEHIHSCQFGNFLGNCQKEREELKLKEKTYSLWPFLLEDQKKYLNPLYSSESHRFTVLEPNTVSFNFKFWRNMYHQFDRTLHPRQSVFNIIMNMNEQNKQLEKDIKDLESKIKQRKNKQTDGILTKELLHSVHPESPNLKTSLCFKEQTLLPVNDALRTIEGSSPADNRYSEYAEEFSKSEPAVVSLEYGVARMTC
UniProt Q9UBD5: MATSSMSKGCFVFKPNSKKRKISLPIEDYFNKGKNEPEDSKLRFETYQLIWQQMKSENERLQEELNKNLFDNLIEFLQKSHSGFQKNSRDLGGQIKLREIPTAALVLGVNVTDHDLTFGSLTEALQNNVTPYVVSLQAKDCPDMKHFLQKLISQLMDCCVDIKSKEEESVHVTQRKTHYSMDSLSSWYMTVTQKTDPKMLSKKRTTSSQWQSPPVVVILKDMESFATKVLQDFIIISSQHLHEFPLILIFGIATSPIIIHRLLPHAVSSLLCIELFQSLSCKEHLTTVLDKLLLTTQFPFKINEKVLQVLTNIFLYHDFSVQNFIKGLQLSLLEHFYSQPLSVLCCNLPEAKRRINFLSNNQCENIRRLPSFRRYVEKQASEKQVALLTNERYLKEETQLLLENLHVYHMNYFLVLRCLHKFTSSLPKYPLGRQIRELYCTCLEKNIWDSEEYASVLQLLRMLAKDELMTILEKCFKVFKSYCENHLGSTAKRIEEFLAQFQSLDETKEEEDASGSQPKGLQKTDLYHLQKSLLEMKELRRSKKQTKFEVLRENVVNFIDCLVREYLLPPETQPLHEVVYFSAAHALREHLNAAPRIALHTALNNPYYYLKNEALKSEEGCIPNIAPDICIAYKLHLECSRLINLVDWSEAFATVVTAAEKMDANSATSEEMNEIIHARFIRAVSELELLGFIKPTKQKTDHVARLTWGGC
UniProt Q9UKV5, whole entry: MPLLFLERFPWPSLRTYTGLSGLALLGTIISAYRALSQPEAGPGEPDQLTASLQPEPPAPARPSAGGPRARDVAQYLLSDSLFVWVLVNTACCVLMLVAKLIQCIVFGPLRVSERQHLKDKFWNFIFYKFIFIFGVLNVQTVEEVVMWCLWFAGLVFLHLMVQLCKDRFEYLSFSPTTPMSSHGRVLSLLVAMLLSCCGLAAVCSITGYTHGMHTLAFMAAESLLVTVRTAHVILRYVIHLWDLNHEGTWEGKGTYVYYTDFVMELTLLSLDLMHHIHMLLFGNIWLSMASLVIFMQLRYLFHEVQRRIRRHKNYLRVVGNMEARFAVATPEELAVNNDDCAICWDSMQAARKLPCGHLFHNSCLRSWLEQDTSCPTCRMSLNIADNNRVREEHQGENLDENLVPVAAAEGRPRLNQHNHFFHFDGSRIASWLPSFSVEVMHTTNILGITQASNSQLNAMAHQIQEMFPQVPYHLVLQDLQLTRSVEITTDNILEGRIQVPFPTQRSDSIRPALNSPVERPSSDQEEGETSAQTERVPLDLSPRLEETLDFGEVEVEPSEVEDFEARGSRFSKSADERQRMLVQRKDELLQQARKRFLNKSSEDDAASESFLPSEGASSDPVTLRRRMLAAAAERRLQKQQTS
UniProt Q9UBK9, whole entry: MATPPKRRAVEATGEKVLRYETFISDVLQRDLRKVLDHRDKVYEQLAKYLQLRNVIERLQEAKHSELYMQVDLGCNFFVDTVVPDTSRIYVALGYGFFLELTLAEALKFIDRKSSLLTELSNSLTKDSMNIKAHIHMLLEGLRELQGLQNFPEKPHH
UniProt Q9UEE9, whole entry: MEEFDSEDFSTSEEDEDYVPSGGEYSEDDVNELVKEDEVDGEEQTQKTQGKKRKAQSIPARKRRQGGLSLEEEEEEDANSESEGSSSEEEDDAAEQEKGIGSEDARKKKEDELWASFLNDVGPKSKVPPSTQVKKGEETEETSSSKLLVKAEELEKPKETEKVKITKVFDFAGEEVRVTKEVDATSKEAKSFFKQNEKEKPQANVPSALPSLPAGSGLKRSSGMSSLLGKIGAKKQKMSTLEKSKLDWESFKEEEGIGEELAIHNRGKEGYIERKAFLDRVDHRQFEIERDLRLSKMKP
UniProt Q9UNE7: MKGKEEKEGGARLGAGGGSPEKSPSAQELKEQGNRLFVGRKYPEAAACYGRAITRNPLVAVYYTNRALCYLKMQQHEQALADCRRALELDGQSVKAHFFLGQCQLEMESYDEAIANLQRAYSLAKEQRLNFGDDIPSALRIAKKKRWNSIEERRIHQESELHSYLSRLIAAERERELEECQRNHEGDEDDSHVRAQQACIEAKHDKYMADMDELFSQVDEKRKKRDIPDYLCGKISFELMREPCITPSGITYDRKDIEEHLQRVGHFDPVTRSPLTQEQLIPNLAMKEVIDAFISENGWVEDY
UniProt Q9UHV9, whole entry: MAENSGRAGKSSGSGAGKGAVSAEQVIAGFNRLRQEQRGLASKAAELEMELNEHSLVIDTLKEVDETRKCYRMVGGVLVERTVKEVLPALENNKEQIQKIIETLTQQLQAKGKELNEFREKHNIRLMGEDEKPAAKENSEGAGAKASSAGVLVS
UniProt Q9UKA8, whole entry: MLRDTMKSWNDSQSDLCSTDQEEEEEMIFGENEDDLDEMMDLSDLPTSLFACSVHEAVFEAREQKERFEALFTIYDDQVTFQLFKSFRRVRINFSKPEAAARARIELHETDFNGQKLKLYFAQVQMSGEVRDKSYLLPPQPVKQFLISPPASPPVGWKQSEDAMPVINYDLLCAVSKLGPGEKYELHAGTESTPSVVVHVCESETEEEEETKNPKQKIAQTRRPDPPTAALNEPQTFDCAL

± gives the standard deviation of the averaged measurements. Only a part is listed here, and it is no random draw.

Compound in the first assay: Nc1ncnc2c1ncn2[C@@H]1O[C@H](COP(=O)(O)OP(=O)(O)OP(=O)(O)O)[C@@H](O)[C@H]1O [adenosine triphosphate]
Description: NP40-soluble protein abundance relative to vehicle (solubility fold change) (ratio); higher = more soluble protein in presence of ATP. Particulars: concentration: 8mM. The essentials: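 In three independent experiments, Jurkat crude lysate made by Dounce homogenisation was treated for 10 min at room temperature and then 3 min at 37 °C with eight concentrations ranging from 0.1 to 10 mM. It was then solubilised with 0.8% NP40 plus benzonase for 60 min at 4 °C and ultracentrifuged. The supernatant was TMT-labelled for LC-MS/MS, and each value is the fold change against the detergent-processed vehicle for the same replicate, using vsn-normalised intensities.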
Turning to UniProt Q9Y252, the NP40-soluble protein abundance was determined as 1.11 ± 0.063.

Consider AKAP11 (UniProt Q9UKA4), for which the NP40-soluble protein abundance is 0.934 ± 0.068.

In the case of AK3 (UniProt Q9UIJ7), the NP40-soluble protein abundance worked out at 0.903 ± 0.036.

Turning to UniProt Q9UBL3 and related entries, the NP40-soluble protein abundance turned out to be 1.03 ± 0.013.

As for “UniProt Q9UK53-2|A0A0C4DFW2|Q9UK53 and related entries”, the NP40-soluble protein abundance was 1.05 ± 0.07.

Consider SEL1L (UniProt Q9UBV2), for which the NP40-soluble protein abundance came out at 0.934 ± 0.047.

As for STX8 (UniProt Q9UNK0), the NP40-soluble protein abundance stood at 0.94 ± 0.07.

In the case of UBA2 (UniProt Q9UBT2), the NP40-soluble protein abundance amounted to 0.936 ± 0.028.

With USP24 (UniProt Q9UPU5), the NP40-soluble protein abundance came to 0.999 ± 0.039.

For the target ZMYM2 (UniProt Q9UBW7), the NP40-soluble protein abundance was determined as 1.07 ± 0.056.

Turning to RUVBL2 (UniProt Q9Y230), the NP40-soluble protein abundance is 1.14 ± 0.013.

On to UniProt Q9UI30, for which the NP40-soluble protein abundance was determined as 1.06 ± 0.067.

As to GTF3C4 (UniProt Q9UKN8), the NP40-soluble protein abundance stood at 1.04 ± 0.013.

Consider UniProt Q9UL03 and related entries, for which the NP40-soluble protein abundance was 1.25 ± 0.16.

As for PLXNA1 (UniProt Q9UIW2), the NP40-soluble protein abundance was found to be 0.987 ± 0.056.

For PSMC3IP (UniProt Q9P2W1), the NP40-soluble protein abundance was found to be 0.944 ± 0.029.

On to ZMIZ1 (UniProt Q9ULJ6), for which the NP40-soluble protein abundance turned out to be 1.03 ± 0.06.

For the target MTMR6 (UniProt Q9Y217), the NP40-soluble protein abundance stood at 0.987 ± 0.035.

Consider UniProt Q9UBD5 and related entries, for which the NP40-soluble protein abundance is 1.09 ± 0.058.

AMFR (UniProt Q9UKV5): the NP40-soluble protein abundance was 0.958 ± 0.043.

Consider SPG7 (UniProt Q9UQ90), for which the NP40-soluble protein abundance turned out to be 1.13 ± 0.043.

As to SEC63 (UniProt Q9UGP8), the NP40-soluble protein abundance was 0.976 ± 0.028.

As for UXT (UniProt Q9UBK9), the NP40-soluble protein abundance is 0.887 ± 0.049.

Regarding UniProt Q9P2K3-3, the NP40-soluble protein abundance amounted to 0.97 ± 0.053.

As to DPP7 (UniProt Q9UHL4), the NP40-soluble protein abundance stood at 0.899 ± 0.012.

As to UniProt Q9ULH7-4|Q9ULH7-5, the NP40-soluble protein abundance turned out to be 0.904 ± 0.05.

With BCS1L (UniProt Q9Y276), the NP40-soluble protein abundance was 1.01 ± 0.032.

With ZHX1 (UniProt Q9UKY1), the NP40-soluble protein abundance turned out to be 1.08 ± 0.16.

Consider UniProt Q9UK41 and related entries, for which the NP40-soluble protein abundance was determined as 1 ± 0.043.

Turning to CFDP1 (UniProt Q9UEE9), the NP40-soluble protein abundance was found to be 0.839 ± 0.0063.

With RAB23 (UniProt Q9ULC3), the NP40-soluble protein abundance was 0.965 ± 0.057.

For LRWD1 (UniProt Q9UFC0), the NP40-soluble protein abundance came out at 1.03 ± 0.054.

With STUB1 (UniProt Q9UNE7), the NP40-soluble protein abundance is 0.942 ± 0.049.

UniProt Q9UBH6 and related entries: the NP40-soluble protein abundance worked out at 0.995 ± 0.14.

For the target PFDN2 (UniProt Q9UHV9), the NP40-soluble protein abundance came to 0.841 ± 0.022.

With UniProt Q9UKA8 and related entries, the NP40-soluble protein abundance is 0.903 ± 0.12.

Take COPS7A (UniProt Q9UBW8): the NP40-soluble protein abundance was determined as 0.986 ± 0.015.

The assay is the same for the next values; noted with them: concentration: 10mM.
In the case of UniProt Q9Y252, the NP40-soluble protein abundance is 1.16 ± 0.055.

Take AKAP11 (UniProt Q9UKA4): the NP40-soluble protein abundance stood at 0.943 ± 0.051.

Turning to AK3 (UniProt Q9UIJ7), the NP40-soluble protein abundance turned out to be 0.879 ± 0.045.

Consider UniProt Q9UBL3 and related entries, for which the NP40-soluble protein abundance worked out at 1.02 ± 0.03.

“UniProt Q9UK53-2|A0A0C4DFW2|Q9UK53 and related entries”: the NP40-soluble protein abundance stood at 1.05 ± 0.08.

For the target SEL1L (UniProt Q9UBV2), the NP40-soluble protein abundance came out at 0.949 ± 0.01.

STX8 (UniProt Q9UNK0): the NP40-soluble protein abundance worked out at 0.842 ± 0.15.

For UBA2 (UniProt Q9UBT2), the NP40-soluble protein abundance was found to be 0.931 ± 0.041.

Regarding USP24 (UniProt Q9UPU5), the NP40-soluble protein abundance is 0.971 ± 0.027.

ZMYM2 (UniProt Q9UBW7): the NP40-soluble protein abundance is 1.11 ± 0.065.

Regarding RUVBL2 (UniProt Q9Y230), the NP40-soluble protein abundance was 1.13 ± 0.045.

As for UniProt Q9UI30, the NP40-soluble protein abundance turned out to be 0.954 ± 0.09.

Turning to GTF3C4 (UniProt Q9UKN8), the NP40-soluble protein abundance amounted to 1.04 ± 0.029.

For UniProt Q9UL03 and related entries, the NP40-soluble protein abundance turned out to be 1.2 ± 0.082.

On to PLXNA1 (UniProt Q9UIW2), for which the NP40-soluble protein abundance turned out to be 0.998 ± 0.037.

Regarding PSMC3IP (UniProt Q9P2W1), the NP40-soluble protein abundance came out at 0.911 ± 0.033.

As to ZMIZ1 (UniProt Q9ULJ6), the NP40-soluble protein abundance was 1.09 ± 0.14.

Regarding MTMR6 (UniProt Q9Y217), the NP40-soluble protein abundance came out at 0.95 ± 0.038.

As to UniProt Q9UBD5 and related entries, the NP40-soluble protein abundance worked out at 1.08 ± 0.061.

AMFR (UniProt Q9UKV5): the NP40-soluble protein abundance was determined as 0.98 ± 0.052.

Take SPG7 (UniProt Q9UQ90): the NP40-soluble protein abundance was determined as 1.11 ± 0.042.

For SEC63 (UniProt Q9UGP8), the NP40-soluble protein abundance is 0.947 ± 0.025.

Consider UXT (UniProt Q9UBK9), for which the NP40-soluble protein abundance was 0.872 ± 0.052.

For UniProt Q9P2K3-3, the NP40-soluble protein abundance is 0.996 ± 0.059.

As to DPP7 (UniProt Q9UHL4), the NP40-soluble protein abundance came out at 0.959 ± 0.047.

For the target UniProt Q9ULH7-4|Q9ULH7-5, the NP40-soluble protein abundance is 0.912 ± 0.031.

Turning to BCS1L (UniProt Q9Y276), the NP40-soluble protein abundance amounted to 0.993 ± 0.034.

In the case of ZHX1 (UniProt Q9UKY1), the NP40-soluble protein abundance was 1.14 ± 0.23.

UniProt Q9UK41 and related entries: the NP40-soluble protein abundance worked out at 0.865 ± 0.09.

As to CFDP1 (UniProt Q9UEE9), the NP40-soluble protein abundance is 0.848 ± 0.0095.

Regarding RAB23 (UniProt Q9ULC3), the NP40-soluble protein abundance was 0.956 ± 0.068.

On to LRWD1 (UniProt Q9UFC0), for which the NP40-soluble protein abundance was 1.02 ± 0.027.

In the case of STUB1 (UniProt Q9UNE7), the NP40-soluble protein abundance came out at 0.898 ± 0.015.

UniProt Q9UBH6 and related entries: the NP40-soluble protein abundance came out at 1.01 ± 0.16.

With PFDN2 (UniProt Q9UHV9), the NP40-soluble protein abundance stood at 0.829 ± 0.069.

For the target UniProt Q9UKA8 and related entries, the NP40-soluble protein abundance came out at 0.997 ± 0.015.

In the case of COPS7A (UniProt Q9UBW8), the NP40-soluble protein abundance was 0.938 ± 0.033.
